Common to all, as to experiment: log2 fold change, soluble protein after heating vs DMSO (PISA); higher = thermal stabilisation; K562 lysate, 10 uM; active = over 0.2 and 3.5 SD of the protein, either way, in both replicates (recomputed)
Compound in one assay: C#Cc1cccc(Nc2ncnc3cc(OCCOC)c(OCCOC)cc23)c1 [erlotinib]
The method, boiled down: (§1)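 Thermal stability, expressed as log-two fold change relative to solvent controls, is given from duplicates. Crude K562 extract in PBS pH 7.4 with 1 mM MgCl2, at 1 mg/mL protein, was treated with 10 μM compound for 30 min and heated in aliquots for 3 min across 48°C-58°C. After pooling, adjustment to 0.5% NP-40 at 4°C and centrifugation at 21,000xg for 90 min, supernatant protein was measured by TMTpro 16plex LC-MS/MS with channel sums equalised.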

The chains behind the UniProt entries cited, without tags or fusion partners. Where a name states a change or a piece, a line headed by the entry shows the natural chain unless it says otherwise.
UniProt B4DR80: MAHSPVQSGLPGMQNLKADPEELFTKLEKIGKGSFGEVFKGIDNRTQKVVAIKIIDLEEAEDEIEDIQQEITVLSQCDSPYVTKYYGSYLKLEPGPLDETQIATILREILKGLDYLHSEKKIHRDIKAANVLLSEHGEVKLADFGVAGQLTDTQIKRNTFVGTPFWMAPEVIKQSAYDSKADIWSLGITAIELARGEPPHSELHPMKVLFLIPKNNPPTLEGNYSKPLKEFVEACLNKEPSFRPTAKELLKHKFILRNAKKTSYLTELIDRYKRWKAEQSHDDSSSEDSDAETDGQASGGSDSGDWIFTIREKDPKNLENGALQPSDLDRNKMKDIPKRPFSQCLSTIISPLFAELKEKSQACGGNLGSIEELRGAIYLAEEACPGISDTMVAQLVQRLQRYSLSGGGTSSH
UniProt Q9UNK0: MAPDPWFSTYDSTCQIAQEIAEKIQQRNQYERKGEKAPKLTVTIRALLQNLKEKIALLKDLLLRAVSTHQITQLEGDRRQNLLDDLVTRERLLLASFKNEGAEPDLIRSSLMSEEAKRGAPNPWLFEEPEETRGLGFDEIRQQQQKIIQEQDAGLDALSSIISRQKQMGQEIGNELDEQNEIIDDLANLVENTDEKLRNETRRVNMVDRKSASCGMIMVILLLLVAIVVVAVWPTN
UniProt Q9UNE7: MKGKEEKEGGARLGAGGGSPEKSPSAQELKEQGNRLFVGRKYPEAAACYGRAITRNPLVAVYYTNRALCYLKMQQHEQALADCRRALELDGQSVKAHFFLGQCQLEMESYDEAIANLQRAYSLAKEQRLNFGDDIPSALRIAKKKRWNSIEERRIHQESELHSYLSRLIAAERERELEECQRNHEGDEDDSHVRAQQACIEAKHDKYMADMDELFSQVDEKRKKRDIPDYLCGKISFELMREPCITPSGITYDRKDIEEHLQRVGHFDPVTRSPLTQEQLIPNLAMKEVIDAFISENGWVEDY
UniProt Q8WXE9: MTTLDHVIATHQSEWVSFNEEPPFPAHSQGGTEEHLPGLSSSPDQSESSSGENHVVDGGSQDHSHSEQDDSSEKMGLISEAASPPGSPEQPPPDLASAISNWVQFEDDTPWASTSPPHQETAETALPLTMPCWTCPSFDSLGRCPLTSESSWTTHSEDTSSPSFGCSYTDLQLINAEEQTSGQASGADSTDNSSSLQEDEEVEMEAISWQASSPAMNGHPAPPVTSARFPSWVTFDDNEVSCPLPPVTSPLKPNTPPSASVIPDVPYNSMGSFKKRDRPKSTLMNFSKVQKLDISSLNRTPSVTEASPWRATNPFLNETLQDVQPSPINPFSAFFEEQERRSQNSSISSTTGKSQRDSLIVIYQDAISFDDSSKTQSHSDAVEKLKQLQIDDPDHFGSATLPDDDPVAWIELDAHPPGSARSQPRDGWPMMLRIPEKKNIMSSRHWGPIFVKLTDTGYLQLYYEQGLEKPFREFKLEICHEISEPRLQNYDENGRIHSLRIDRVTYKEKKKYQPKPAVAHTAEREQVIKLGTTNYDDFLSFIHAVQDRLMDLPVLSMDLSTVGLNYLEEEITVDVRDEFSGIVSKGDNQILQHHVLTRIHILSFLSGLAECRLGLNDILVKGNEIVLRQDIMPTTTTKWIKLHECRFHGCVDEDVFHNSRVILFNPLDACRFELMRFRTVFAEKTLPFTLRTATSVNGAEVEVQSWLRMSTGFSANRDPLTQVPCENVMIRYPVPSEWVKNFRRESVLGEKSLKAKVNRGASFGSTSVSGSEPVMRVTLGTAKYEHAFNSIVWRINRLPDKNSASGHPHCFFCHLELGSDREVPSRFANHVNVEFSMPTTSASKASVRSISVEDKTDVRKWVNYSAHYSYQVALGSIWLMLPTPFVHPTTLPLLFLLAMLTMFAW

Compound in assay [1]: C/C(=N\NC(=O)C1=CC(=CC=C1)S(=O)(=O)N2CCOCC2)/C3=C(C=CC(=C3)Cl)O
The method in brief:
as §1

Compound in assay [2]: C1=CC(=CC=C1C2=NC3=C(N2)C=C(C=C3)C(=O)N)OC4=CC=C(C=C4)Cl
The method, boiled down: as §1

Compound in assay [3]: C1=CC2=C(C=CC(=C2)/C=C\3/C(=O)NC(=NCC4=CC=CS4)S3)N=C1
The method in brief: as §1

Compound in assay [4]: C1=CC2=NC=CN=C2C=C1/C=C/3\C(=O)NC(=O)S3
The method in brief: as §1

Compound in assay [5]: C1=CC=C(C=C1)C2=NC(=C(N2)C3=CC=NC=C3)C4=CC(=C(C=C4)Cl)O
The method in brief: as §1

Compound in assay [6]: C1=CC=C2C(=C1)C3=NNC4=CC=CC(=C43)C2=O
The method in brief: as §1

Compound in assay [7]: C1CCN(C1)C(=O)NC2=CC=CC(=C2)NC3=NC=C(C(=N3)NCCC4=CN=CN4)Br
The method in brief: as §1

Compound in assay [8]: C1CN(CCC1(CC2=CC=C(C=C2)Cl)N)C3=NC=NC4=C3C=CN4
The method in brief:
as §1

Compound in another assay: C1COCCN1CCN2C3=CC=CC=C3N=C2NC(=O)C4=CC(=CC=C4)[N+](=O)[O-] [IRAK-1-4 Inhibitor I]
The method in brief: as §1

Compound in a further assay: C=CC(=O)N1CCC[C@@H](n2nc(-c3ccc(Oc4ccccc4)cc3)c3c(N)ncnc32)C1 [ibrutinib]
The method, boiled down:
as §1

Compound in assay [9]: CC(=O)c1cnc2ccc(-c3cc(Cl)c(O)c(Cl)c3)nc2c1N[C@H]1CC[C@H](CN(C)C)CC1
The method, boiled down: as §1

Compound in a further assay: CC(C)(C)Cn1c(N)nc2ccc(-c3[nH]c(C(C)(C)C)nc3-c3ccc(F)cc3)nc21 [ralimetinib]
The method in brief: as §1

Compound in assay [10]: CC(C)(O)CC(=O)NCCn1ccc2ncnc(Nc3ccc(Oc4cccc(C(F)(F)F)c4)c(Cl)c3)c21
The method, boiled down:
as §1

Compound in assay [11]: CC(C)C1=C2N=C(C=C(N2N=C1)NCC3=CC=CC=C3)NCCCCCCN
The method in brief: as §1

Compound in assay [12]: CC1=C(C(CC(=O)N1)C2=CC=C(C=C2)C(F)(F)F)C(=O)NC3=C(C=C4C(=C3)C=NN4)F
The method, boiled down:
as §1

Compound in assay [13]: CC1=C(C2=C(C=C1)C(=O)C3=CC=CC=C3N2CCCN)C
The method in brief:
as §1

Compound in assay [14]: CC1=C(C=C(C=C1)NC(=O)C2=CC(=CC=C2)C(C)(C)C#N)NC3=CC4=C(C=C3)N=CN(C4=O)C
The method, boiled down:
as §1

Compound in assay [15]: CC1=C(C=C(C=C1)NC(=O)C2=CC(=CC=C2)N(C)C)NC(=O)C3=CC=C(C=C3)O
The method, boiled down:
as §1

Compound in assay [16]: CC1=CC=C(C=C1)SC2=C3C=C(SC3=CN=C2)C(=O)N
The method in brief:
as §1

The list shows a part of the results.

Turning to STK24 (UniProt B4DR80), the log2 fold change with erlotinib is inactive: 0.019; in [1], inactive: 0.02; in assay [2], inactive: 0.018; in [3] it was inactive: -0.04; in assay [4], inactive: -0.003; in assay [5], inactive: -0.004. Moreover, the log2 fold change was inactive: 0.198 in [6]; inactive: 0.045 in [7]; inactive: 0.013 in [8]; inactive: -0.007 in the assay with IRAK-1-4 Inhibitor I; inactive: 0.024 in the assay with ibrutinib; active: 0.218 in assay [9]. Moreover, the log2 fold change with ralimetinib is inactive: 0.005; in assay [10] it was inactive: 0.024; in assay [11], inactive: 0.001; in [12], inactive: -0.019; in [13], inactive: -0.019; in assay [14], inactive: -0.018. For the same target, the log2 fold change in assay [15] was inactive: -0.019; in assay [16], inactive: -0.018.

As to STX8 (UniProt Q9UNK0), the log2 fold change is inactive: 0.015 with erlotinib; inactive: -0.013 in assay [1]; inactive: -0.029 in assay [2]; inactive: -0.005 in [3]; inactive: -0.017 in [4]; inactive: -0.002 in assay [5]. Further, the log2 fold change was inactive: -0.053 in [6]; inactive: 0.007 in [7]; inactive: 0.024 in assay [8]; inactive: 0.003 in the assay with IRAK-1-4 Inhibitor I; inactive: 0.063 in the assay with ibrutinib; inactive: -0.018 in assay [9]. The log2 fold change in the assay with ralimetinib is inactive: 0.029; in [10] it was inactive: 0.007; in [11] it was inactive: -0.016; in assay [12], inactive: -0.048; in assay [13] it was inactive: 0.023; in [14] it was inactive: 0. Also, the log2 fold change in assay [15] is inactive: -0.032; in assay [16], inactive: -0.018.

Regarding STUB1 (UniProt Q9UNE7), the log2 fold change with erlotinib was inactive: 0.05; in [1], inactive: 0.024; in assay [2] it was inactive: -0.034; in assay [3] it was inactive: -0.022; in assay [4] it was inactive: 0.009; in [5], inactive: 0.003. For the same target, the log2 fold change in [6] is inactive: -0.033; in assay [7], inactive: 0.013; in assay [8], inactive: 0.006; in the assay with IRAK-1-4 Inhibitor I it was inactive: -0.018; in the assay with ibrutinib it was inactive: 0.015; in assay [9], inactive: 0.011. In addition, the log2 fold change with ralimetinib was inactive: 0.005; in assay [10] it was inactive: 0; in assay [11], inactive: -0.018; in [12], inactive: 0.023; in [13], inactive: 0.032; in [14], inactive: -0.012. Also, the values for the log2 fold change in assay [15] and in assay [16] were inactive: -0.001 and inactive: -0.019, respectively.

Turning to STON2 isoform 3 (UniProt Q8WXE9), the log2 fold change with erlotinib was inactive: -0.041; in [1], inactive: 0.017; in assay [2], inactive: 0.042; in assay [3], inactive: -0.052; in assay [4] it was inactive: 0.005; in assay [5], inactive: -0.009. For the same target, the log2 fold change in assay [6] is inactive: -0.095; in assay [7], inactive: -0.016; in assay [8], inactive: -0.028; with IRAK-1-4 Inhibitor I it was inactive: -0.018; with ibrutinib it was inactive: 0.058; in assay [9], inactive: -0.024. For the same target, the log2 fold change with ralimetinib was inactive: 0.048; in [10], inactive: -0.045; in [11], inactive: -0.007; in [12], inactive: 0.032; in assay [13], inactive: -0.017; in [14] it was inactive: -0.02. The results for the log2 fold change in assay [15] and in [16] were inactive: 0.049 and inactive: 0.046, respectively.

Source of the values: the supplement of paper PMC10849652.
